Source: publication doi:10.1101/2024.05.06.592341
These are yes or no findings as the source states them, for the method shown. In cells and extracts the contact can be indirect. Some binding calls cover weakened binding; strength is not graded here.

The chains behind the UniProt entries cited, without tags or fusion partners.
UniProt P05556: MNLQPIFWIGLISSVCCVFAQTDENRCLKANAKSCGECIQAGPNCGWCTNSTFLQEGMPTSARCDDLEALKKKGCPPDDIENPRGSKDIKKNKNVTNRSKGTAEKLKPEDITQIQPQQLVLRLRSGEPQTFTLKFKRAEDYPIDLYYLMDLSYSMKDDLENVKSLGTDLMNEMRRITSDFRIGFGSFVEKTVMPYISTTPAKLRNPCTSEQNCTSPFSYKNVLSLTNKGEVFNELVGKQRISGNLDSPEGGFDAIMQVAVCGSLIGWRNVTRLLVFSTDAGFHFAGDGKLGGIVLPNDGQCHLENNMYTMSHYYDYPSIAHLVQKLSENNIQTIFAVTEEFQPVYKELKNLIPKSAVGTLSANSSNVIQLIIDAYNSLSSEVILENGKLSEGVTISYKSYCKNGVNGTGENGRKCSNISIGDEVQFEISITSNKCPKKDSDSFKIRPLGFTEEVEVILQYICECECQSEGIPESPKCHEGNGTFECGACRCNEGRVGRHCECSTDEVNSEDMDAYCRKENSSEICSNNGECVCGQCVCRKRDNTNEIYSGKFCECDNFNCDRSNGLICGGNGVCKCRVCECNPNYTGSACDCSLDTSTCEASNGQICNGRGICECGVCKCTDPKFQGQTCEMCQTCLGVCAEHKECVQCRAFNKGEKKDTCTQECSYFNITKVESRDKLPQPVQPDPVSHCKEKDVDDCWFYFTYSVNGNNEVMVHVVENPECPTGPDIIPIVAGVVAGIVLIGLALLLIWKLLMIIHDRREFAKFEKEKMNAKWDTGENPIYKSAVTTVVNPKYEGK

Target: integrin β1 (human (endogenous in hLECs)) (UniProt P05556)
Assay: proximity ligation

tetraspanin CD63 (from UniProt P08962 1-238)
binding: binds
